11 sequences from article PMC8062489, “Tgf-β1 transcriptionally promotes 90K expression: possible implications for cancer progression” can be followed below.

Data set [1] concerns USF1 (FRTL-5 nuclear extract) + USF2 (FRTL-5 nuclear extract). Put plainly: competition with a labelled probe. Conditions: TGF-b1-treated cell extract, 20 mM HEPES (pH not stated), 0.1% NP40, 5 mM MgCl2, 50 mM KCl, 2% glycerol, 2 mM DTT, 50 ng/ml poly(dI-dC), room temperature, 20 ul, 5 ug nuclear extract, protein in an extract.
For data set [2] the test system is unchanged. Put plainly: EMSA. Conditions: 20 mM HEPES (pH not stated), 0.1% NP40, 5 mM MgCl2, 50 mM KCl, 2% glycerol, 2 mM DTT, 50 ng/ml poly(dI-dC), room temperature, 20 ul, 5 ug nuclear extract, protein in an extract. (Mobility shift assays separate free from complexed probe on a gel.)
Data set [3] has the same test system. Description: EMSA supershift. Conditions: TGF-b1-treated cell extract, anti-USF1 or anti-USF2; 20 mM HEPES (pH not stated), 0.1% NP40, 5 mM MgCl2, 50 mM KCl, 2% glycerol, 2 mM DTT, 50 ng/ml poly(dI-dC), room temperature, 20 ul, 5 ug nuclear extract; protein in an extract; label: 5'-32P as probe, unlabeled as competitor.
Setting [4] is: unlabeled vs Oligo I probe, label: unlabeled competitor.
Setting [5] is: 5H extract, unaltered vs Oligo I, label: 5'-32P.

Construct, isoform or probe ends are uncertain for at least one entry. Where cells or extracts were used, other partners may take part. For some assays here: A negative result means that nothing was seen under these conditions. For some assays here: At least one verdict was read from the data and is not stated in words by the source. For some assays here: The comparison behind a weaker result is the experiment's own reference, which may not be listed here.

For the sequence “AGAGATCTGACGTCAGACAGCTAG (double strand) [CRE]”, the binding result in data set [1] (setting [4]) is “no binding”. For the sequence “CTGCCCTAAAATGTGTATTCCTAGGAAATG (double strand) [FBE (FAST-1 binding element)]”, the binding result in data set [1] (setting [4]) was “no binding”. Consider “GCAACATCCGTCATGTGTTTTCTGGA (double strand) [CM3]”, for which the binding result in data set [2] (setting [5]) is “binds”. Regarding “GCAGCATCAGTCATGTGTTTTCTGGA (double strand) [CM2]”, the binding result in data set [2] (setting [5]) is recorded as “binds”. Consider “GCAGCCTCAGGCATGTGTTTTCTGGA (double strand) [CM1]”, for which the binding result in data set [2] (5H extract: nearly eliminated (3A), TGF-b1 extract: complex not duplicated (3D), label: 5'-32P) is “binds more weakly”.

Take “GCAGCCTCCGTCATCTGTTTCCTGGA (double strand) [TM1]”: the binding result in data set [2] (5H extract, nearly eliminated, label: 5'-32P) was “binds more weakly”. Consider “GCAGCCTCCGTCATGGATTTTCTGGA (double strand) [CEM]”, for which, in data set [2] (TGF-b1-treated cell extract, label: 5'-32P), the binding result is reported as “no binding”.

With “GCAGCCTCCGTCATGTGTTTCATGGA (double strand) [TM2]”, the binding result in data set [2] (5H extract, partly attenuated, label: 5'-32P) is reported as “binds more weakly”.

Take “GCAGCCTCCGTCATGTGTTTTCTGGA (double strand) [Oligo I]”: the binding result in data set [1] (20x unlabeled self-competitor, label: 5'-32P as probe, unlabeled as competitor) was “binds”; in data set [3], “binds”. With “GGAAGCAGACCACGGAGTCTGCTT (double strand) [EM]”, the binding result in data set [2] (TGF-b1-treated cell extract, label: 5'-32P as probe, unlabeled as competitor) is given as “no binding”; in data set [1] (20x unlabeled, label: 5'-32P as probe, unlabeled as competitor) it was “no binding”. As to “GGAAGCAGACCACGTGGTCTGCTT (double strand) [EWT (E, consensus E-box)]”, the binding result in data set [2] (TGF-b1-treated cell extract, same mobility as Oligo I complex, label: 5'-32P as probe, unlabeled as competitor) is listed as “binds”; in data set [1] (20x unlabeled, inhibitory at same concentration as Oligo I, label: 5'-32P as probe, unlabeled as competitor), “binds”.
